Test results published in PubChem BioAssay AID602313 (National Center for Advancing Translational Sciences (NCATS), 2012).
Where “and” joins values, the source holds several entries; their conditions need not be identical. Equal entries are not always repeated. Among all 390,000 compounds or so, about 760 (0.19%) were called active. Inconclusive means that the source gave no clear call. Such entries were picked first, then a sample of the others. Calls come from the whole dose curve; as a rule, active = well fitted inhibition curve with a large enough effect; inconclusive = small, poorly fitted or top-dose-only effect; inactive = flat fitted curve, though single readings scatter. Where the call is inconclusive, the potency comes from a doubtful curve fit.

Test: qHTS for Inhibitors of Vif-A3F Interactions: qHTS; note: nearly all actives have a fitted effect of over 65% in size; for activity, negative = active: % of control where 0% means no effect
Conditions: HeLa A3F-eYFP + Vif (tagged APOBEC3F with the HIV-1 protein that degrades it), YFP fluorescence increase; series mostly up to 46.1 µM; activity, negative = active: at the top concentration
Method in brief: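 HeLa cells stably expressing Vif plus C-terminally eYFP-tagged A3F were seeded, incubated overnight at 37 deg C, dosed with compound, incubated overnight again at 37 deg C. Yellow fluorescence (Ex 488/Em 500-530) reported blocked Vif-mediated A3F-eYFP degradation.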
Potency is the fitted concentration of half-maximal effect.

SMILES	activity, negative = active	Potency
Cc1ccc(NC(=S)NCc2ccc3c(c2)cc(C)n3C)c(C)c1	inactive: -5.14%	–
COc1ccccc1NCc1ccc([N+](=O)[O-])s1	inactive: 8.6%	–
CCCOC(=O)CCCN1C(=O)/C(=C2\SC(=S)N(CCCC(=O)OCCC)C2=O)SC1=S	–	inconclusive: 10 µM [inhibitor, partial curve, poor fit]
CC(=O)Nc1ccc(SCC(=O)c2cc(C)n(-c3ccccc3F)c2C)cc1	inactive: 0.209%	–
COc1ccc(-c2nsc(SCC(=O)NCC3CCCO3)n2)cc1 (stereo not drawn)	–	inconclusive: 35.5 µM [inhibitor, single point]
CC(=O)OCCn1c(C)[n+](CCOC(C)=O)c2cc(Cl)c(Cl)cc21	inactive: 14.1%	–
Cc1ccc(C)c(C(=O)CSc2nc(N)cc(=O)[nH]2)c1	–	inconclusive: 6.31 µM [inhibitor, single point]
CCC(C(=O)NCc1ccco1)N(C(=O)CNS(=O)(=O)c1ccccc1)c1ccc(F)cc1 (stereo not drawn)	–	inconclusive: 6.31 µM [inhibitor, single point]
O=C(/C=C\Nc1ccc2c(c1)OCO2)c1ccc2c(c1)OCO2	–	inconclusive: 7.08 µM [inhibitor, partial curve, poor fit]
CC(C(=O)OCC(=O)c1ccc(F)cc1)N1C(=O)C2C3C=CC(C3)C2C1=O (stereo not drawn)	–	inconclusive: 35.5 µM [inhibitor, single point]
CC[n+]1c(/C=C/N(C)c2ccccc2)oc2ccc(F)cc21	–	inconclusive: 3.16 µM [inhibitor, full curve, poor fit]
COc1ccc(/C=C2\SC(c3ccc(C)cc3)=NC2=O)cc1OC	inactive: -10.5%	–
CCOC(=O)Cn1c2ccccc2c2nc3ccccc3nc21	–	inconclusive: 20 µM [inhibitor, single point]
O=C(/C=C/Nc1ccc(S(=O)(=O)Nc2cnc3ccccc3n2)cc1)c1ccccc1	inactive: 8.13%	–
N#CC(C#N)=C1C=C2C=C(N3CCCCCC3)CCC2CC1 (stereo not drawn)	–	inconclusive: 10 µM [inhibitor, partial curve, poor fit]
O=C(Nc1nc(-c2ccccn2)cs1)C1CC1	–	inconclusive: 22.4 µM [inhibitor, single point]
COCCCNC(=S)N/N=C/c1ccc(OC)cc1	–	active: 22.4 µM
COc1cc(C(=O)OCC(=O)Nc2nnc(-c3ccccc3)o2)cc(OC)c1OC	–	inconclusive: 11.2 µM [inhibitor, single point]
NC(=O)Cn1nc(C(F)(F)F)c2c1CCCC2	–	inconclusive: 3.98 µM [inhibitor, partial curve, poor fit]
NNC(=O)c1ccc(CN2C(=O)c3cccc4cccc2c34)cc1	–	inconclusive: 35.5 µM [inhibitor, single point]
Cc1cccc(C)c1NC(=O)CN(C)C(=O)c1ccc(-c2cccc(C(F)(F)F)c2)o1	–	inconclusive: 6.31 µM [inhibitor, single point]
Cc1ccccc1N1CCN(C2=NC(=O)/C(=C\c3cccs3)S2)CC1	inactive: 0.682%	–
Cc1nn(C)c(Sc2ccccc2N)c1[N+](=O)[O-]	inactive: 2%	–

Some of the entries so far, as labelled records.
CC(=O)OCCn1c(C)[n+](CCOC(C)=O)c2cc(Cl)c(Cl)cc21
  activity, negative = active: inactive: 14.1%
O=C(/C=C\Nc1ccc2c(c1)OCO2)c1ccc2c(c1)OCO2
  Potency: inconclusive: 7.08 µM [inhibitor, partial curve, poor fit]

Further results:

SMILES	activity, negative = active	Potency
Cc1nn2c(N3CCCC3)c3c(nc2c1-c1ccccc1)CCC3	–	inconclusive: 14.1 µM [inhibitor, partial curve, poor fit]
COc1cccc2c(=O)n(CC(=O)Nc3ccccc3)ccc12	inactive: 1.65%	–
Cc1ccc[n+](-c2nc3ccccc3nc2[N-]S(=O)(=O)c2ccccc2)c1	–	inconclusive: 20 µM [inhibitor, single point]
COc1ccc(OCC(=O)N/N=c2\oc3c(OC)cccc3cc2C(N)=O)cc1	–	inconclusive: 11.2 µM [inhibitor, partial curve, poor fit]
COc1cccc2c1C(=O)c1c(O)c3c(c(O)c1C2=O)CC(O)(C(C)=O)CC3OC1CC(O)C(O)C(C)O1 (stereo not drawn)	–	inconclusive: 22.4 µM [inhibitor, partial curve, poor fit]
O=C(c1cccc(Cl)c1)N1CCN(CCCc2ccccc2)CC1	–	inconclusive: 35.5 µM [inhibitor, single point]
CNC(=O)c1c(NC(=O)c2ccc(S(=O)(=O)N3CCCCC3)cc2)sc2c1CCN(C(C)C)C2	–	inconclusive: 31.6 µM [inhibitor, single point]
Cc1c(C)c2c(C)nn(-c3ccccc3)c2[nH]c1=O	inactive: -2.64%	–
O=C(Nc1ccccc1O)c1ccc(NS(=O)(=O)c2cccc3cccnc23)cc1	–	inconclusive: 20 µM [inhibitor, partial curve, poor fit]
O=C(N[C@H]1C/C=C\C[C@@H](CC(=O)N(CCO)Cc2ccccc2)C(=O)NC[C@H](c2ccccc2)OC1=O)OCC1c2ccccc2-c2ccccc21	–	inconclusive: 22.4 µM [inhibitor, single point]
CN(C)C(=O)C1C2NC(=S)N(c3ccc(Cl)cc3)C1(C)Oc1ccc(Cl)cc12 (stereo not drawn)	–	inconclusive: 35.5 µM [inhibitor, single point]
c1ccc(CSC2=NNC(c3ccccn3)S2)cc1 (stereo not drawn)	–	inconclusive: 10 µM [inhibitor, partial curve, poor fit]
CCC(C)[C@H](NC(=O)NCCC1=CCCCC1)C(=O)O (stereo partly drawn)	inactive: 2.37%	–
C[C@H](O)[C@@H]1CN2CCc3c([nH]c4ccc(-c5ccc6c(c5)OCO6)cc34)[C@@H]2C[C@@H]1N(C)C(=O)NC1CCCCC1	–	inconclusive: 3.16 µM [inhibitor, partial curve, poor fit]
COc1ccc2[nH]cc(C=O)c2c1	inactive: 1.88%	–
O=C(COc1coc(CN2CCc3ccccc3C2)cc1=O)Nc1ccc(F)cc1	–	inconclusive: 3.55 µM [inhibitor, single point]
Cc1cccc(-c2nc(SCc3cc(=O)c4c(C)cc(C)cc4[nH]3)n[nH]2)c1	–	inconclusive: 35.5 µM [inhibitor, single point]
Cc1ccc(Nc2c(-c3ccccn3)nc3ccc(Br)cn23)cc1	inactive: 0.486%	–
Cc1nc(C)c(C(=O)Nc2ccc(Oc3ccccc3)cc2)o1	inactive: -5.23%	–
Cc1nc(C)c(C(=O)NCc2ccccc2Cl)o1	inactive: -6.42%	–
COc1cc(CNCCN2CCOCC2)ccc1OCc1ccc(Cl)cc1	inactive: -3.81%	–
COC(=O)c1ccccc1CSc1nsc(C)c1C#N	–	inconclusive: 17.8 µM [inhibitor, single point]
CN1CCc2c(sc(N)c2C(=O)c2ccc(Cl)cc2)C1	–	inconclusive: 22.4 µM [inhibitor, single point]

SMILES	activity, negative = active	Potency
Cc1c(C(=O)N2CCN(c3ccc(C(F)(F)F)cn3)CC2)oc2ccccc12	inactive: -5.78%	–
O=C(N/N=C/c1ccco1)c1cc(-c2ccccc2)nc2ccccc12	inactive: 1.22%	–
Cc1nn(-c2ccccc2)c(OC(=O)c2ccccc2)c1S(=O)(=O)c1ccccc1	inactive: 5.24%	–
CCN(CC)C(=O)N1CCc2ccccc21	inactive: 2.84%	–
COc1ccc(C2CC(c3cccc(F)c3)=NN2c2ccc(S(N)(=O)=O)cc2)cc1 (stereo not drawn)	inactive: -5.42%	–
CC(=O)c1cccc(NC(=O)C2CCN(C(=O)c3cccs3)CC2)c1	–	inconclusive: 4.47 µM [inhibitor, partial curve, poor fit]
CCOC(=O)C1C(c2ccc(C(=O)O)cc2)NC(=O)NC1(O)C(F)(F)F (stereo not drawn)	–	inconclusive: 0.562 µM [inhibitor, full curve, poor fit]
COc1ccc(S(=O)(=O)N2CCOCC2)cc1NC(=O)Cc1c(Cl)cccc1Cl	–	inconclusive: 35.5 µM [inhibitor, single point]
Cc1cccc(-c2ccc3[nH]c4c(c3c2)CCN2C[C@@H]([C@H](C)O)[C@@H](N(C)C(=O)NC3CCCCC3)C[C@@H]42)c1	–	inconclusive: 25.1 µM [inhibitor, single point]
Cc1ccc2nc(-c3ccccn3)c(Nc3ccccc3C)n2c1	–	inconclusive: 8.91 µM [inhibitor, partial curve] and inconclusive: 15.8 µM [inhibitor, single point]
Cc1ccc(NC(=O)CSc2ccccc2NC(=O)c2ccccc2)cc1Cl	inactive: -17%	–
CCc1c(C2(O)CCCCC2)[nH]c2c(C(=O)OC)cc(Cl)cc12	–	inconclusive: 35.5 µM [inhibitor, partial curve, poor fit]
Nc1cc2c3ccccc3ccc2c2ccccc12	–	inconclusive: 6.31 µM [inhibitor, partial curve, poor fit]
COc1cc(CNc2ccc3[nH]c(=O)[nH]c3c2)ccc1OCc1cccc(C)c1	–	inconclusive: 0.891 µM [inhibitor, full curve, poor fit]
O=C(COC(=O)C12CC3CC(CC(Cl)(C3)C1)C2)N1CCCCC1	–	inconclusive: 7.94 µM [inhibitor, partial curve]
CC1(C)Cc2c(c(N3CCOCC3)nc3sc(-c4ccc(C(=O)O)o4)c(N)c23)CO1	–	inconclusive: 25.1 µM [inhibitor, single point]
Cc1oc(-c2ccc(Cl)cc2)nc1Cn1c(=O)cc(C)c2c(C)nn(-c3ccccc3)c21	inactive: 2.68%	–
CCOC(=O)/C(N=Nc1c(C)n(C)n(-c2ccccc2)c1=O)=C(/O)c1ccccc1	inactive: 10.6%	–
CCOC(=O)c1ccc(COC(=O)CCc2nc3ccccc3[nH]c2=O)o1	inactive: 5.24%	–
Oc1c(CN2CCOCC2)cc(COCc2ccccc2)c2cccnc12	–	inconclusive: 35.5 µM [inhibitor, partial curve, poor fit]
Cn1nc(C(F)(F)F)cc1-c1ccc(/C=C(\C#N)C(=O)c2cccc(C(F)(F)F)c2)s1	–	inconclusive: 31.6 µM [inhibitor, single point]
Nc1cccc2c1C(=O)N(CCOc1ccccc1F)C2=O	–	inconclusive: 22.4 µM [inhibitor, single point]
